No constants are given. Whether binding was seen depends on the method and setting. Binding seen in cells or lysates may run through a third protein. Some entries that bind do so weakly or less than the wild type.

Amino acid sequences for entries named in this document (tags omitted).
UniProt Q99836: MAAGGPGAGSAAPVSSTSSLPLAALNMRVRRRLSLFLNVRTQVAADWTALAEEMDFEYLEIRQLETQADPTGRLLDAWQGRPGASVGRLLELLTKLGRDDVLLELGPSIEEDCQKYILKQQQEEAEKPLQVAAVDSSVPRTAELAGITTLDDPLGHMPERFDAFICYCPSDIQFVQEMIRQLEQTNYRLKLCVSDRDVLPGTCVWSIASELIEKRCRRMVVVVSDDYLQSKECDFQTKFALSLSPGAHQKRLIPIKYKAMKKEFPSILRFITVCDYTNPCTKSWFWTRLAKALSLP

Consider one substance from article PMC10734061.

The test addresses Growth factor receptor bound protein 7 (human (endogenous in AGS)) (UniProt Q14451). The test can be described thus: co-IP; AGS cells lysed in IP lysis buffer; antibodies added to the lysate overnight at 4 °C, then beads for 2 h; washed with IP buffer; eluted proteins analysed by Western blot.

In the case of “Myeloid differentiation primary response 88 (from UniProt Q99836 1-296)”, the binding result is recorded as “binds”.
